## Primary screen of a compound library

Source: ChEMBL document CHEMBL3988442, “University of Dundee, Small-Polar-MMV Screening Library” (2021).

The filed quantity is “Percent Effect” (%).
The record does not define 0% and 100%; most values in the screen are far below 50% and negative numbers occur (in some assays of this library far below -100).
Compounds were drawn at random from those tested, without regard to their results.

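Whole-cell assay for inhibitors of Mycobacterium tuberculosis growth, labelled Cornell in the record; the read-out is not stated. The concentration is filed as 10 mM, unlikely as a test dose, so the dose is not known. Higher means stronger inhibition (inferred from two other growth screens of the library). About 53,000 compounds were tested under these conditions; 1.7% (about 900) showed 50% or more at least once.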

Compound,effect
Cc1occc1C(=O)N1CCc2c(CNS(C)(=O)=O)cncc2C1.Cl,38.93
O=C(O)C(F)(F)F.[H][C@]12C[C@@H](C(=O)NCCc3cccs3)CO[C@@]1([H])CCN(C1CCC1)C2,10.53
CCC(=O)NCc1ccc(N2CCCCC2)cc1,0.7771
CCN(CC)S(=O)(=O)N1CCCC1c1nnc2n1CCN(C)CC2 (stereo not given),42.64
COCCC(=O)N1Cc2nc3c(C)c(-c4cccs4)nn3c(O)c2C1,39.74
COCCOc1ncccc1C(=O)N(C)c1nccs1,-27.97
O=C(NCCC1=CCCCC1)NC1CCCc2c1cnn2CCO (stereo not given),-5.413
CCc1nnc2n1CCN(Cc1csc(-c3ccsc3)n1)C2,19.63
NC(=O)CN(Cc1ccc(Br)cc1)C(=O)c1cnccn1,-39.17
COCCOc1ccc(CNC2CCc3ncnn3C2)cc1OC (stereo not given),7.262
Cc1cnn(CC2CN(Cc3nnc(C(C)C)o3)CCO2)c1 (stereo not given),-13.32
[H][C@]12CC[C@]([H])(CN(c3ncnc4ccsc34)C1)N(CC1CC1)C2=O,24.75
Cc1nccn1CCC1CCCCN1Cc1ccc(N(C)C)nc1 (stereo not given),12.79
O=C(CCc1ccsc1)NC1CCN(c2cccc(F)c2)CC1,4.529
Cc1cc(CN(CCO)Cc2cc(Br)ccc2F)no1,24.05
CN1C(=O)C2(CCN(c3nccc4occc34)CC2)c2ccccc21,7.979
Cn1nc(C(=O)N2CCOCC2)c2c1CN(CC1CCC1)C2,6.532
CC(C)C[C@H](N)COc1cccc(F)c1Oc1ccc(Cl)cc1,107.4
Cn1cc(CN2CCCC(CCc3c(F)cccc3F)C2)cn1 (stereo not given),5.388
Cn1cc(-c2nc(CN3CCc4c(ncn4C4CC4)C3)cs2)cn1,20.2
O=S(=O)(C1CC1)N1CCc2ncnc(-c3ccc(F)cc3)c2CC1,-21.91
CN(C)CC(=O)N1Cc2nnn(C)c2C(COCc2ccccn2)C1.O=C(O)C(F)(F)F.O=C(O)C(F)(F)F (stereo not given),-25.98
O=c1ccc2c([nH]1)CCN(S(=O)(=O)c1ccc3c(c1)CCCC3)C2,5.634
COCCO[C@H]1CCN(c2ccc(C)nn2)[C@H]1Cc1cccnc1.O=C(O)C(F)(F)F.O=C(O)C(F)(F)F,-24.17
O=C(CCc1nc2cc(Br)cnc2[nH]1)NCCCN1CCOCC1,17.52
CC(C)c1cc(=O)[nH]c(C(C)(C)N)n1.Cl,8.844
Fc1ccc(F)c(CN2CCC(c3cnccn3)CC2)c1,-8.862
O=C(COCC1CC1)N1CCCC1c1nc(-c2ccccc2F)c[nH]1 (stereo not given),4.382
CCOc1c(C(N)=O)cn(C)c1-c1nc2cc(NC(C)=O)ccc2n1C,15.73
Cc1cccc2nc(CNCc3cccc4c3OCCCO4)cn12,18.8
CCC(CNC(=O)c1ccccc1OC)N1CCc2ccccc2C1 (stereo not given),-52.38
c1cc(-c2cn[nH]c2)ccc1CN1CCNCC1,26.86
CCSc1ccc(C(=O)Nc2c(C)nn(C(C)C)c2C)cn1,16.13
CN1CCN(CCO)C(=O)C12CCN(c1nccs1)CC2,6.964
CCc1c(C)nc(-n2nc(C3CC3)cc2NC(C)=O)[nH]c1=O,9.536
CO[C@H]1CN(C(=O)c2cn3cc(C)ccc3n2)CC[C@@]12CCCO2,43.47
CN1CCC(N(CCc2ccccc2)C(=O)c2ccc(C#N)nc2)CC1,18.4
CC(CNCc1ccc2c(c1)n(C)c(=O)n2C)Oc1ccccn1.Cl (stereo not given),4.063
CCCS(=O)(=O)N1CCC2(CN(c3cnn(C)c3)C(=O)CN2C)C1.O=C(O)C(F)(F)F (stereo not given),24.96
Cc1noc(C2CCCN(C(=O)c3cc(Cl)ccc3F)C2)n1 (stereo not given),2.818
Cc1ccc(C)c2c(=O)cc(CN3CC[C@@H](N)[C@H](O)C3)[nH]c12,21.86
CN(C)C(=O)CN1CCC2(COCc3cnc(-c4ccccc4)nc32)C1 (stereo not given),5.104
CC(=O)N1CCCCC1c1cc(C(=O)N2CCOCC2)[nH]n1 (stereo not given),16.06
CN(Cc1ccc(F)cc1)C(=O)NCc1nnc2n1CCC2,-11.61
COCC(=O)N1Cc2nccn2CC(COc2cccnc2)C1 (stereo not given),34.1
CC(c1ccc(S(C)(=O)=O)cc1)N(C)C(=O)c1ccccc1I (stereo not given),-2.116
CC(NC(=O)CCn1c(=O)oc2ccccc21)c1ccccn1 (stereo not given),-25.51
CC(Cn1cccn1)n1cnc2cccc(F)c2c1=O (stereo not given),-10.81
CCn1cc(C(=O)NCC2(C(N)=O)CCOCC2)c2ccccc21,-14.52
Cc1ccsc1CN(CCCO)Cc1nc2ccccc2[nH]1,4.021
O=C(O)C(F)(F)F.OCCN1CCC2(CCc3cc(-c4ccoc4)ccc32)CC1,-17.37
CCC1COCCN1C(=O)NCc1nccn1CC(C)C (stereo not given),1.749

For reference, 4 entries once more:

| Compound | effect |
|---|---|
| `CCc1c(C)nc(-n2nc(C3CC3)cc2NC(C)=O)[nH]c1=O` | 9.536 |
| `CC(=O)N1CCCCC1c1cc(C(=O)N2CCOCC2)[nH]n1` (stereo not given) | 16.06 |
| `Cn1cc(CN2CCCC(CCc3c(F)cccc3F)C2)cn1` (stereo not given) | 5.388 |
| `O=C(CCc1nc2cc(Br)cnc2[nH]1)NCCCN1CCOCC1` | 17.52 |